# Test results: patent US20050020810A1 (priority 2002, published 2005)
# Assay: general procedure: Fmoc solid-phase peptide synthesis; Rink Amide AM resin (Novabiochem); HBTU/HOBt/NMM
# Details: for conjugation yield: conjugation step
# [1] = whole synthesis, scale 0.101 mmol
# [2] = whole synthesis, scale 0.100 mmol
# [3] = whole synthesis, scale 0.0997 mmol
# [4] = whole synthesis, scale 0.111 mmol
# [5] = whole synthesis, scale 0.067 mmol
substance,measurement,setting,value
Ac-Pro-His-Ser-Cys-Asn-Gly-Gly-Lys(2-fluoroacetyl)-NH2,isolated mass,[1],21 mg
same,isolated yield,[1],23%
Ac-Pro-His-Ser-Cys(Me)-Asn-Gly-Gly-Lys(4-fluorobenzoyl)-NH2,step yield,late stage modification step,71%
4-Fluorobenzoyl-Pro-His-Ser-Cys-Asn-NH2,isolated yield,whole synthesis,19%
Ac-Pro-His-Ser-Cys-Asn-NH—(CH2)4—CO-Lys(3-(4-hydroxyphenyl)propionyl)-NH2,isolated mass,[2],34 mg
same,isolated yield,[2],35%
Ac-Pro-His-Ser-Cys(Ac)-Asn-Dox,conjugation yield,,54%
Ac-Pro-His-Ser-Cys-Asn-β-Ala-Lys(3-(4-hydroxyphenyl)propionyl)-NH2,isolated mass,[2],39 mg
same,isolated yield,[2],41%
Ac-PHSCNGGGGK-NH2,isolated yield,whole synthesis,70%
Ac-Pro-His-Ser-Cys-Asn-Gly-Gly-Lys(8-[(4′-fluorobenzyl)amino]suberoyl)-NH2,crude mass,[3],42.3 mg
same,isolated mass,[3],3.9 mg
same,isolated yield,[3],11%
2-Fluoroacetyl-β-Ala-Pro-His-Ser-Cys-Asn-NH2,isolated mass,[4],30 mg
same,isolated yield,[4],40%
Ac-Pro-His-Ser-Cys-Asn-NH—(CH2)6—CO-Lys(3-(4-hydroxyphenyl)propionyl)-NH2,isolated mass,[2],29 mg
same,isolated yield,[2],29%
Acetyl-Pro-His-Ser-Cys-Asn-Gly-Gly-Lys(Protoporphyrin)-NH2,isolated yield,whole synthesis,8.6%
m-dPEG-β-Ala-His-Ser-Cys-Asn-NH2,isolated yield,whole synthesis,21%
Ac-Pro-His-Ser-Cys(Me)-Asn-Dox,conjugation yield,,39%
DTPA-PHSCN,isolated yield,"whole synthesis, on resin-bound PHSCN (0.051 mmol)",27.7%
Ac-Pro-His-Ser-Cys-Asn-Gly-Gly-Lys(4-fluorobenzoyl)-NH2,isolated mass,[5],28 mg
same,isolated yield,[5],44%
